Reference: patent US20050238581A1, “Dynamic hepatic recycling glucose tolerance test” (priority 2002, published 2005)

Experiment: intraperitoneal hepatic recycling glucose tolerance test (HRGTT) with [1, 2-^13C2]-glucose load
Assay type: in vivo, C57BL6 mice
Settings: liver cytosol, relative to actin, over the 3 hours of the test
Description: Stable isotopes of the M2 isotopomer glucose was administered at 1 mg glucose/gm body weight by intraperitoneal injection. Animals were euthanized by an overdose of isoflurane anesthesia, and tissue from liver and skeletal muscle were rapidly dissected free, snap-frozen in liquid nitrogen, and stored at −80° C. until processed for isolation of RNA or glycogen. Cytosolic protein was extracted from the liver tissue after homogenization with 10 strikes in lysis buffer containing 0.25 M sucrose, I OmM Tris-HCL(pH7.4), 3 mM MgCL2, 0.1 mM PMSF, 20 mM NaF, 1 mM Na3VO4, 1 MM Na4P207, 1 μg/ml of leupeptin/aprotinin/pepstatin. The resulting cell lysate was filtered with 4 layers of cheesecloth. Nuclei were pelleted by centrifugation at 1000 g for 10 min. Mitochondria were precipitated by centrifugation at 15,000 g for 20 min from the supernatant. The cytosolic fraction was isolated as the supernatant obtained from last ultra-centrifugation at 100,000 g at 4° C. for 1 hr. Protein concentration from cytosol were measured by using an absorbance at 595 run (BCA kit from Pierce). 60 1 μg of protein extracts from cytosol were separated by 10% SDS-PAGE. The membrane blots were incubated with anti-GK at 1:2500 (v/v), anti-G6PDH at 1:2000 (v/v), anti-PEPCK at 1:500 (v/v), and anti-p-actin at 1:2000 (v/v), for either 1 hr in western washing buffer at RT or overnight at 4 C after blocking. The blots were hybridized with secondary antibodies coupled to horseradish peroxidase for 40 to 60 min at RT. Immunodetection was accomplished using enhanced chemiluminescence. Density of each band was determined by scanning the exposed film. The time course of glucose and lactate isotopomers in plasma, and glucose isotopomers in liver glycogen was determined using gas chromatography/mass spectrometry. […] The absorption of administered glucose was monitored by the time course of M2 isotopomer, and hepatic glucose recycling by the time course of M1 isotopomer of glucose.

OC[C@H]1OC(O)[C@H](O)[C@@H](O)[C@@H]1O (stereo partly drawn) [[1,2-^13C2]-glucose]
drop of hepatic PEPCK expression, Western blot: 50% | rise of hepatic glucokinase (GK) expression, Western blot: three-fold | rise of hepatic glucose-6-phosphate dehydrogenase (G6PDH) expression, Western blot: 2.5 fold
